In PubChem BioAssay AID248 (DTP/NCI, 2004) one finds survivor count and T/C data, which are given here for 28 molecules.

The list shows only some results of the screen, not a fair sample: it gathers tests that were run many times, whatever their T/C, doses with no T/C, and many T/C values between a quarter and a half above the control. Further doses and runs are listed elsewhere. T/C: endpoint of the treated group in % of that of the vehicle group. Some doses have a count of surviving animals in place of a T/C: the source files T/C as zero there, which appears to mark a toxic dose or a test without result, not a measured value. Some doses without a T/C left all or most animals alive at the check, yet need not have been tolerated: survival well below the control is almost never listed, so the zero probably covers shortened survival too. Survivors were counted at the toxicity check, usually on the fifth day, unless a day is given; later deaths do not show. Schedules are NCI's codes, read here as Q, the interval in days (D) or hours (H), X, the number of doses. Some schedule codes hold Z or #, which are not explained here. For survival time, this PubChem deposit counts one and a half times the control or more as active, and values a quarter to a half above the control carry no call in these data; other NCI protocols may use other cut-offs. Some T/C values are followed by the survivors on the day toxicity was checked, most often the fifth; without a count, all were alive then.

The test system of the test is L1210 leukemia ip in BDF1 mice, survival T/C. Nature of the test: NCI In Vivo Anticancer Drug Screen. Data for tumor model L1210 Leukemia (intraperitoneal) in B6D2F1 (BDF1) mice. To be noted: T/C endpoint: mean survival time, higher T/C = longer survival.
[1] abbreviates: dose: 300.0 mg/kg/injection, schedule: Q01DX001 (ip), vehicle: saline.
Where [2] appears, read: dose: 400.0 mg/kg/injection, schedule: Q04DX003 (ip), vehicle: saline with Tween-80.
The mark [3] stands for this setting: dose: 200.0 mg/kg/injection, schedule: Q04DX003 (ip), vehicle: saline with Tween-80.
Where [4] appears, read: dose: 50.0 mg/kg/injection, schedule: Q01DX009 (ip), vehicle: saline with Tween-80.
Where [5] appears, read: dose: 100.0 mg/kg/injection, schedule: Q01DX009 (ip), vehicle: saline with Tween-80.
Setting [6] is: dose: 200.0 mg/kg/injection, schedule: Q01DX009 (ip), vehicle: saline with Tween-80.
The mark [7] stands for this setting: dose: 400.0 mg/kg/injection, schedule: Q01DX009 (ip), vehicle: saline with Tween-80.
Setting [8] is: dose: 200.0 mg/kg/injection, schedule: Q04DX002 (ip), vehicle: Klucel (hydroxypropylcellulose) (HPC).
Where [9] appears, read: dose: 400.0 mg/kg/injection, schedule: Q01DX001 (ip), vehicle: saline with Tween-80.
The mark [10] stands for this setting: dose: 400.0 mg/kg/injection, schedule: Q04DX002 (ip), vehicle: Klucel (hydroxypropylcellulose) (HPC).

`O=C1C2=C(C(=O)c3ccccc31)C(=O)C1CC=CCC1C2=O` (stereo not drawn): the survivor count is given as 6 of 6 (dose: 30.0 mg/kg/injection, schedule: Q01DX009 (ip), vehicle: saline with Tween-80); 6 of 6 (dose: 60.0 mg/kg/injection, schedule: Q01DX009 (ip), vehicle: saline with Tween-80); 6 of 6 (dose: 90.0 mg/kg/injection, schedule: Q01DX009 (ip), vehicle: saline with Tween-80); 6 of 6 (dose: 180.0 mg/kg/injection, schedule: Q01DX009 (ip), vehicle: saline with Tween-80).

Turning to `ONC12CCCCC1(Cl)CCCC2` (stereo not drawn), the survivor count (dose: 75.0 mg/kg/injection, schedule: Q01DX001 (ip), vehicle: saline) is given as 0 of 6 and the survivor count under setting [1] is given as 0 of 6.

Turning to `CCCCCCCCCCCCN1CCCN(CCCCCCCCCCCC)CC1`, the survivor count under setting [2] was 3 of 6.

Regarding `COC(=O)c1ccccc1N=NN(C)C1CCCCC1`, where the note is “dose: 400.0 mg/kg/injection, schedule: Q01DX009 (ip), vehicle: other”, the survivor count was 0 of 6.

For `C=NNc1nc2ccccc2s1`, the survivor count (dose: 400.0 mg/kg/injection, schedule: Q04DX003 (ip), vehicle: gum acacia) is given as 0 of 6.

With `C[N+](C)(CCCCOCCCC[N+](C)(C)Cc1ccc([N+](=O)[O-])cc1)Cc1ccc([N+](=O)[O-])cc1`, the survivor count was 0 of 6 (dose: 6.0 mg/kg/injection, schedule: Q04DX003 (ip), vehicle: saline with Tween-80); 0 of 6 (dose: 12.5 mg/kg/injection, schedule: Q04DX003 (ip), vehicle: saline with Tween-80); 0 of 6 (dose: 25.0 mg/kg/injection, schedule: Q04DX003 (ip), vehicle: saline with Tween-80); 0 of 6 (dose: 50.0 mg/kg/injection, schedule: Q04DX003 (ip), vehicle: saline with Tween-80); 0 of 6 (dose: 100.0 mg/kg/injection, schedule: Q04DX003 (ip), vehicle: saline with Tween-80); 0 of 6 under setting [3]. Under setting [2], the survivor count was 0 of 6.

Take `Clc1nc(N2CC2)nc(N2CC2)c1Br`: the survivor count was 0 of 6 (dose: 1.0 mg/kg/injection, schedule: Q01DX Z (ip), vehicle: methylcellulose (MC)); 0 of 6 (dose: 3.0 mg/kg/injection, schedule: Q01DX Z (ip), vehicle: methylcellulose (MC)); 0 of 6 (dose: 6.0 mg/kg/injection, schedule: Q01DX Z (ip), vehicle: methylcellulose (MC)); 0 of 6 (dose: 12.0 mg/kg/injection, schedule: Q01DX Z (ip), vehicle: methylcellulose (MC)); 0 of 6 (dose: 25.0 mg/kg/injection, schedule: Q01DX Z (ip), vehicle: methylcellulose (MC)); 0 of 6 (dose: 50.0 mg/kg/injection, schedule: Q01DX Z (ip), vehicle: methylcellulose (MC)). For the same molecule, the survivor count by setting is: (dose: 100.0 mg/kg/injection, schedule: Q01DX Z (ip), vehicle: methylcellulose (MC)) 0 of 6; (dose: 200.0 mg/kg/injection, schedule: Q01DX Z (ip), vehicle: methylcellulose (MC)) 0 of 6.

`O/N=C/c1ccccc1`: the T/C (dose: 25.0 mg/kg/injection, schedule: Q01DX009 (ip), vehicle: saline with Tween-80) was 129 % of control; the T/C under setting [4] was 131 % of control; the T/C under setting [5] was 138 % of control.

Regarding `O=c1[nH]c2ccccc2n1C1CCN(CCCS(=O)(=O)c2ccccc2)CC1`, the survivor count (dose: 100.0 mg/kg/injection, schedule: Q04DX003 (ip), vehicle: gum acacia) is on record as 0 of 6.

Turning to `Cc1c2c(ccc3ccccc32)cc2cccc[n+]12`, the survivor count is reported as 5 of 6 (dose: 8.0 mg/kg/injection, schedule: Q01DX Z (ip), vehicle: saline) and 0 of 6 (dose: 16.0 mg/kg/injection, schedule: Q01DX Z (ip), vehicle: saline).

With `Oc1ccc(Cl)c2c1CCC2`, the survivor count under setting [2] is 6 of 6.

With `OC1c2ccccc2-c2ccc(Cl)cc21` (stereo not drawn), the survivor count reads like this: under setting [6], 5 of 6; under setting [7], 3 of 6.

In the case of `CC(Br)C(=O)NC(CC(N)=O)C(=O)O` (stereo not drawn), the survivor count under setting [7] was 6 of 6.

Consider `CCN(CC)CCCOC(=O)N(Cc1ccc(Cl)cc1)C1CC1`, for which the survivor count was 3 of 6 under setting [5], 2 of 6 under setting [3] and 0 of 6 under setting [2].

Turning to `O=C1NC(c2ccccc2)(c2ccccc2)C(=O)N1CCN(CCCl)CCCl`, the survivor count reads like this: under setting [4], 5 of 6; under setting [6], 5 of 6; under setting [3], 6 of 6; under setting [7], 0 of 6; under setting [2], 5 of 6. The T/C is, setting by setting: under setting [3], 125 % of control; under setting [2], 134 % of control [4 of 6 alive].

With `O=C(O)c1ccccc1NC(c1ccccc1)c1ccc2cccnc2c1O` (stereo not drawn), under “dose: 400.0 mg/kg/injection, schedule: Q01DX001 (ip), vehicle: saline”, the survivor count was 2 of 4.

In the case of `Oc1ccc(CN2CCCCC2)c2cccnc12`, the survivor count (dose: 300.0 mg/kg/injection, schedule: Q01DX001 (ip), vehicle: carboxymethylcellulose (CMC)) is 3 of 6.

Turning to `CCC1NCCc2cc(OC)c(O)cc21` (stereo not drawn), the survivor count under setting [1] is 1 of 6.

In the case of `O=C(Nc1ccc(Cl)c(Cl)c1)C(Cl)Cl`, under setting [8], the survivor count is recorded as 3 of 3.

`COc1cc2c[n+](C)c3c4ccccc4ccc3c2cc1OC`: the survivor count under setting [9] was 3 of 3.

For the molecule `CCCCCC(Oc1ccc(Cl)cc1C)C(=O)O` (stereo not drawn), under setting [10], the survivor count is listed as 3 of 3.

`CCN(CC)C(=O)Oc1ccc(OC)cc1`: the survivor count under setting [7] is given as 6 of 6.

As to `COC(=O)CCN1C(=O)c2ccccc2C1=O`, under setting [9], the survivor count is 6 of 6.

As for `CCN(CC)c1ccc2nc3ccc(N(CC)CC)cc3[n+](-c3ccccc3)c2c1`, the survivor count is on record as 0 of 6 (dose: 12.0 mg/kg/injection, schedule: Q01DX009 (ip), vehicle: saline); 6 of 6 (dose: 12.5 mg/kg/injection, schedule: Q01DX009 (ip), vehicle: saline); 0 of 6 (dose: 25.0 mg/kg/injection, schedule: Q01DX009 (ip), vehicle: saline); 0 of 6 (dose: 50.0 mg/kg/injection, schedule: Q01DX009 (ip), vehicle: saline); 0 of 6 (dose: 100.0 mg/kg/injection, schedule: Q01DX009 (ip), vehicle: saline); 0 of 6 (dose: 200.0 mg/kg/injection, schedule: Q01DX009 (ip), vehicle: saline). Besides, the survivor count (dose: 400.0 mg/kg/injection, schedule: Q01DX009 (ip), vehicle: saline) is given as 0 of 6.

Take `C#CC1CC2C3CCC4=CC(=O)CCC4(C)C3CCC2(C)C1N(C)C` (stereo not drawn): the survivor count is reported as 2 of 4 (dose: 200.0 mg/kg/injection, schedule: Q01DX001 (sc), vehicle: steroid suspending solution) and 0 of 4 (dose: 400.0 mg/kg/injection, schedule: Q01DX001 (sc), vehicle: steroid suspending solution).

Turning to `COc1cc2c(cc1O)C(CCc1cc(OC)c(OC)c(OC)c1)=[N+](C)CC2`, the survivor count is 2 of 3 (dose: 100.0 mg/kg/injection, schedule: Q04DX002 (ip), vehicle: Klucel (hydroxypropylcellulose) (HPC)); 0 of 3 under setting [8]; 0 of 3 under setting [10].

As to `Cn1c(=O)c(CBr)nc2ccccc21`, the survivor count by setting is: (dose: 40.0 mg/kg/injection, schedule: Q01DX015 (ip), vehicle: carboxymethylcellulose (CMC)) 0 of 6; (dose: 80.0 mg/kg/injection, schedule: Q01DX015 (ip), vehicle: carboxymethylcellulose (CMC)) 0 of 6; (dose: 160.0 mg/kg/injection, schedule: Q01DX015 (ip), vehicle: carboxymethylcellulose (CMC)) 0 of 6.

Regarding `Nc1cccc(Cl)c1`, the survivor count (dose: 400.0 mg/kg/injection, schedule: Q04DX003 (ip), vehicle: Klucel (hydroxypropylcellulose) (HPC)) was 2 of 6.
